Values of other authors in patent US9561238B2, “Pharmaceutical compositions comprising estetrol derivatives for use in cancer therapy” (Donesta Bioscience B. V., priority 2002, dated 2017).

Settings: endogenous; cited from earlier work

SMILES: C[C@]12CC[C@@H]3c4ccc(O)cc4CC[C@H]3[C@@H]1[C@@H](O)[C@@H](O)[C@@H]2O [E4, 1,3,5(10)-estratrien-3,15α,16α,17β-tetrol]
- Unconjugated estetrol level in fetal relative to maternal plasma: about 12 times
